# Assay results as given in paper PMC6965108.
# Amino acid sequences for entries named in this document (tags omitted).
# UniProt Q9UKV5: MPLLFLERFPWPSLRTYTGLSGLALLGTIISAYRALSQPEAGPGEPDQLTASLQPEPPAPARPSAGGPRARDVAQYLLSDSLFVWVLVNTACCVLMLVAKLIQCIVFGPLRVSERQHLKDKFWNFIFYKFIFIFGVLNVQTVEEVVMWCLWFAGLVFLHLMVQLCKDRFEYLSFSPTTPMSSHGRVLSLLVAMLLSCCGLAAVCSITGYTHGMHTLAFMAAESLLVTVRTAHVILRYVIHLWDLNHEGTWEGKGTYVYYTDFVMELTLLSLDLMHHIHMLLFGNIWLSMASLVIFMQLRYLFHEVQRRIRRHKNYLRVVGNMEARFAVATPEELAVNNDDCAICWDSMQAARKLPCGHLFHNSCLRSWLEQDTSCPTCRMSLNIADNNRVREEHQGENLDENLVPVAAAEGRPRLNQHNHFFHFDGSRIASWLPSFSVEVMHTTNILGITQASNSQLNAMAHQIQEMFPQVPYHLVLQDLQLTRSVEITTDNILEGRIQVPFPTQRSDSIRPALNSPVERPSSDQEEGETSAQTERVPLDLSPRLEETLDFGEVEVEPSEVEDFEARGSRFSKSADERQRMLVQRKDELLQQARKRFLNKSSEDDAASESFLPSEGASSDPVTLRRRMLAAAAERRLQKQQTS
# These are yes or no findings as the source states them, for the method shown. In cells and extracts the contact can be indirect. Some binding calls cover weakened binding; strength is not graded here. Tags and fused reporters may be left off the sequences shown.
# Target: T1, FLAG-tagged KDELR3 (KDELR3-001, transcript variant 1) (human) (UniProt O43731)
# T1 sequence: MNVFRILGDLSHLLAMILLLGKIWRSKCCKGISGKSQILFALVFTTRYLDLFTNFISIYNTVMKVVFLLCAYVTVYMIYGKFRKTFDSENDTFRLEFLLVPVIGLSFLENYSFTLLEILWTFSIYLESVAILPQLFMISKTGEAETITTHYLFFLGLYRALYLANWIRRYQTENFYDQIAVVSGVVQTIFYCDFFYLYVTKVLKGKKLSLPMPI
# Assay: co-IP; stably transduced 1205Lu cells lysed in 1% Triton X-100 buffer (50 mM Tris pH 7.5, 150 mM NaCl, 10 mM iodoacetamide, 50 µM MG132); 2 mg lysate immunoprecipitated with anti-gp78 or anti-DDK antibody on Dynabeads Protein A, overnight at 4 °C; immunoblot with anti-DDK or anti-gp78 (Ab2)
substance,measurement,value
mCherry-tagged gp78 (from UniProt Q9UKV5 1-643) (enzyme),binding,binds
"gp78 / autocrine motility factor receptor (AMFR), endogenous (from UniProt Q9UKV5 1-643) (enzyme)",binding,binds
